Screening data, single-dose tests

Measurements from “University of Dundee, Small-Polar-MMV Screening Library” (2021), ChEMBL document CHEMBL3988442.

Results are given as percent effect.
The record does not define 0% and 100%; most values in the screen are far below 50% and negative numbers occur (in some assays of this library far below -100).
This is an unselected part of the compounds tested.

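Phenotypic screen: M. tuberculosis growth, cholesterol and DPPC medium, 4 days; the read-out is not stated. Tested at 500 µM. Higher reads as more growth inhibition (inferred: compounds with an IC50 in retests scored well above the rest). Size under these conditions: about 18,000 compounds, about 900 of them at 50% or above in at least one test.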

structure | Percent Effect
c1nc2c([nH]1)C1(CCC1)NCC2 | 4.745%
Cc1nc(O)cc(-c2nc3c([nH]2)CCCNC3=O)n1 | 0.5356%
COc1cccc(C(=O)NC2CCN(C(C)C)CC2)c1 | 0.2803%
CNS(=O)(=O)CCCN1CCOCC1c1cccn1C (stereo not given) | -7.874%
NCCCN1CCOC1=O | 6.177%
CCC(C)c1csc(NC(=O)NCC(=O)NC)n1 (stereo not given) | -13.08%
NC(=O)CSc1nnc(-c2cc(Br)ccc2O)[nH]1 | 70.39%
CC1COCCN1C(=O)NCCC1=CCOCC1 (stereo not given) | 6.645%
COCCNC(=O)COc1ccc2c(c1)OCO2 | 38.13%
CC1CCN(Cc2cc(=O)n(C)c(=O)n2C)CC1 | -5.64%
Cc1cc(NC(C)CN2CCOCC2)ncc1Br (stereo not given) | 45.85%
O=C(c1cnccn1)N1CCCCC1c1nccs1 (stereo not given) | 0.9386%
Cc1cc(NC(=O)NCCN2CCCCC2C)no1 (stereo not given) | -10.64%
COc1cccc(CN(C)C(=O)c2cc[nH]n2)n1 | 5.392%
Cc1cnc(C(=O)N(C)c2ncccc2Br)cn1 | 5.061%
NC(=O)C1Cc2ccccc2CN1C(=O)C1CCC1 (stereo not given) | 13.63%
COc1cc(C(=O)N2C[C@H](C(C)C)[C@@H](N)C2)ccc1C | 13.71%
CCc1cccc(S(=O)(=O)N2CC[C@H](N)C2)c1 | 13.12%
CS(=O)(=O)NCCc1ccc(C(=O)NCC2CC2)cc1 | 0.06622%
O=C(NC1CCc2ccc(F)cc21)c1c[nH]nn1 (stereo not given) | 39.37%
CC(C)COCCN1CCN(Cc2ccon2)CC1 | 4.693%
CCN(CC)c1ncccc1CNC(=O)C1CCCO1 (stereo not given) | -0.5324%
Cc1ccc2[nH]c(CN)nc2c1C | 46.86%
CN1CCC(NC(=O)CC(C)(C)C)CC1 | 4.728%
CC(=O)NC(C)c1nnc2ccccn12 (stereo not given) | -9.061%
CCS(=O)(=O)NCc1ccccc1F | 18.21%
CCCN(CC1CCCO1)C(=O)c1ncc[nH]1 (stereo not given) | 1.243%
N#Cc1cc(Br)ccc1N1CCN(C(=O)CO)CC1 | 10.95%
O=C(CC1CCCN1)Nc1ccc2[nH]ncc2c1 (stereo not given) | 8.831%
CC(CCOc1ccccc1)C(=O)NC1(C#N)CC1 (stereo not given) | 2.79%
CC(N)Cc1ccncc1 (stereo not given) | -1.413%
Cn1cc2ccc(CN)cc2n1 | 3.66%
CCC1CN(S(=O)(=O)c2cccc(C#N)c2)CCO1 (stereo not given) | -16.55%
CCOC(=O)CN1C(=O)c2ccc(Br)cc2C1=O | -7.105%
COCCOc1cccc(CNCCNS(C)(=O)=O)c1 | 14.39%
Cc1nnc(SCC(=O)NCC2CC2)s1 | 17.37%
CNC(=O)CNC(=O)c1cc2cc(C)ccc2nc1C | -36.13%
CC(C)(C)OC(=O)N1CCC(n2ccc(N)n2)C1 (stereo not given) | 2.835%
CO[C@@H]1CCOC[C@H]1NC(=O)c1cccc(N(C)C)c1 | -3.321%
O=S1(=O)CCCN1CCNc1ncc(Cl)cc1Cl | 37.39%
CCOc1ccc(C(=O)NC2(C)CCS(=O)(=O)C2)cn1 (stereo not given) | 8.885%
CC(C)(C)C(=O)Nc1nc(-c2ccncc2)n[nH]1 | 4.731%
Cc1cccc(CNCCS(=O)(=O)N2CCOCC2)c1 | 33.04%
CC(C)C(N)c1nncn1C (stereo not given) | 1.156%
CC(O)C(=O)Nc1ccc(Cl)c(OC(F)F)c1 (stereo not given) | 35.76%
CC(C)(C)OC(=O)N1CCN2C(=N)NCC2C1 (stereo not given) | 13.16%
Cc1c(Br)cccc1C(=O)NCCN1CCNCC1 | 1.819%
Cc1ccccc1CSCC(=O)NCC1(O)CCNC1 (stereo not given) | 15.83%
Cn1ccnc1-c1nnc(NCc2ncc(Cl)n2C)o1 | -6.579%
CN(CCN)CC(=O)N(C)C | -25.53%
Cc1nc(CSCC(=O)N2CCCC2)cs1 | 8.715%
COC1CCN(CC(=O)N2CCCCC2)CC1 | 5.932%
CC(C)(C(=O)N1CCNCC1)c1ccccc1 | 7.637%
O=C(CN1CCOCC1)NCCc1noc(C2CC2)n1 | -9.602%
O=C(Nc1ccccn1)C1CCS(=O)(=O)C1 (stereo not given) | 1.734%
CCCOc1nc(C)cc(COC)c1C(N)=O | -6.803%
COCCNC(=O)CCNS(=O)(=O)c1ccccc1 | 49.24%
Cn1cc(C(N)CO)cn1 (stereo not given) | 4.049%
CC(N)c1cc(F)ccc1-n1cccn1 (stereo not given) | 8.758%
COC(C)c1cccc(NCCCS(C)(=O)=O)c1 (stereo not given) | 13%
O=C1NCCc2c(F)cc(Br)cc21 | 8.015%
COCCC(=O)NCC(C)c1ccc(F)c(F)c1 (stereo not given) | 34.16%
Cn1cnnc1CNC(=O)c1sccc1OC(F)F | -3.573%
COc1ncccc1NC(=O)Nc1c(C)n[nH]c1C | -8.707%
CCCc1noc(COc2nc(C)no2)n1 | 9.565%
CC(C)CCNC(=O)CCCC(=O)Nc1ccccn1 | -8.395%
CS(=O)(=O)NCC(CO)Cc1c(F)cccc1Cl (stereo not given) | -8.934%
CCC(NC(=O)CCc1cnccn1)c1ccncc1 (stereo not given) | -7.098%
O=C(Cn1cc(Br)ccc1=O)NCc1ccon1 | -3.385%
N#Cc1cccnc1N[C@@H]1CCOC[C@H]1OCC1CC1 | -3.846%
COC(=O)CSc1nc2ccc(OC)cc2[nH]1 | 8.854%
Nc1nnc(-c2ccco2)[nH]1 | 4.168%
COCC(=O)Nc1cccc(C)c1C(=O)N1CCCC1 | -9.292%
CCC(C)C(=O)NCc1cccnc1N1CCOCC1 (stereo not given) | -8.303%
CCCNC(=O)CNC(=O)Cc1c[nH]c2ccccc12 | -2.998%
O=S(=O)(C1CC1)N1CCC(NCc2ccco2)CC1 | -6.869%
COCCC(=O)NCC(OC)c1cccc(Cl)c1 (stereo not given) | 3.871%
CC(=O)c1cnnn1-c1ccccc1 | 4.14%
Cc1cc(C)cc(NC(=O)CCN2CCN(C)CC2)c1 | 7.014%
CCN1CCN(Cc2nnnn2C2CC2)CC1 | -7.11%
Cc1n[nH]c(SCC(=O)NCCN2CCCC2=O)n1 | 8.224%
COCCN(CC(N)=O)C(=O)c1ccc(F)c(Br)c1 | -9.686%
CC(C)[C@H]1CN(CCC(=O)N(C)C)C[C@@H]1N | 6.804%
CNC1CCCNC1=O (stereo not given) | 2.317%
OC1(Cc2ccccc2F)CCNCC1 | 5.318%
CCNC(=O)C1CN(C(=O)Nc2ccc(F)cc2)C1 | -6.99%
CC(O)CN1CCN(c2ncnc3c2CCC3)CC1 (stereo not given) | 1.144%
CN1CCN(c2ccc(N)nc2)CC1 | -16.53%

The first 6 entries again:

* c1nc2c([nH]1)C1(CCC1)NCC2 : 4.745%
* Cc1nc(O)cc(-c2nc3c([nH]2)CCCNC3=O)n1 : 0.5356%
* COc1cccc(C(=O)NC2CCN(C(C)C)CC2)c1 : 0.2803%
* CNS(=O)(=O)CCCN1CCOCC1c1cccn1C (stereo not given) : -7.874%
* NCCCN1CCOC1=O : 6.177%
* CCC(C)c1csc(NC(=O)NCC(=O)NC)n1 (stereo not given) : -13.08%